The text below walks through data of PubChem BioAssay AID493014 (National Center for Advancing Translational Sciences (NCATS), 2011).

The other results are listed elsewhere or left out. These are further read-outs of the screen, such as a control signal, another cell line or another target. No call is given for them. Most of these compounds were active or inconclusive in the main read-out, so they are no random draw. Words in brackets tell the shape of the fitted curve; partial curves, single points and poor fits give uncertain potencies.

A short description of this test: qHTS Assay to Find Inhibitors of Chronic Active B-Cell Receptor Signaling. The following applies: ABC-DLBCL IkBa-CBG/CBR reporter, luminescence ratio (green luciferase fused to IkBa over red control in TMD8 lymphoma cells), 4 h. The method in brief: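 TMD8 ABC-DLBCL cells carrying doxycycline-inducible green luciferase fused to IkappaBalpha plus unfused red luciferase were exposed to compounds (up to 46 uM) for 4 hrs at 37C. Activity came from the overlap-corrected green/red luminescence ratio.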
Background: In qHTS, concentration-response curves come from the screen itself.

Setting [1] is: measured here: CBR red luminescence, cell number.
Setting [2] is: measured here: IkBa-CBG green luminescence.

`Cc1ccc(F)cc1NC(=O)c1ccc(OCC2CCCO2)cc1` (centres undefined): the AC50 (in general, the concentration giving half of the maximal activity seen) under setting [1] is 0.58 µM [falling, single point].

As to `CN(C)c1ccc(C=Nc2ccc(N(C)C)cc2)cc1`, the AC50 under setting [1] is 1.64 µM [falling, full curve].

As to `COC(=O)Cc1nnc(SCC(=O)Nc2ccccc2)c2ccccc12`, under setting [1], the AC50 is 3.98 µM [falling, partial curve].

Turning to `Cc1onc(-c2c(Cl)cccc2Cl)c1C(=O)NC1CCCCC1`, the AC50 under setting [1] is 5.62 µM [rising, single point].

With `O=C1NC(Cc2ccccc2)c2nc3ccc(Cl)cc3c(=O)n2-c2cc(Cl)ccc21` (centres undefined), the AC50 under setting [1] is 2.91 µM [rising, partial curve, poor fit].

Consider `C=CCN(c1ccc(C(=O)N2CCCC2)cc1)S(C)(=O)=O`, for which the concentration at half-maximal activity (AC50) under setting [1] is 4.11 µM [rising, partial curve, poor fit].

`Cc1ncoc1C(=O)N1CCCC(C(=O)Nc2cccc(-c3ccc(F)cc3)c2)C1` (centres undefined): under setting [1], the half-maximal activity concentration (AC50) was 25.1 µM [falling, single point].

Consider `COc1cccc(CC(=O)Nc2nc(-c3ccc(F)c(F)c3)cs2)c1`, for which, under setting [1], the concentration at half-maximal activity (AC50) was 10 µM [falling, partial curve].

In the case of `O=C(CCCN1C(=O)c2ccccc2C1=O)NCCCn1ccnc1`, the concentration at half-maximal activity (AC50) under setting [1] was 10 µM [rising, partial curve, poor fit] and the AC50 under setting [2] is 14.1 µM [rising, partial curve, poor fit].

Take `O=C(Oc1cccc(/C=N/Nc2nc(Nc3ccccc3)nc(N3CCOCC3)n2)c1)c1ccco1`: the half-maximal activity concentration (AC50) under setting [1] was 16.4 µM [falling, partial curve].

As to `C/C(=N/NC(=O)CNc1ccc(C)cc1)c1ccc(Br)s1`, the half-maximal activity concentration (AC50) under setting [1] is 9.2 µM [falling, partial curve, poor fit].

For `N#C/C(=C\c1coc2ccccc2c1=O)C(N)=S`, the concentration at half-maximal activity (AC50) under setting [1] was 6.31 µM [falling, single point].

For the compound `Cc1cccnc1NC(=O)c1ccc(Cl)c(S(=O)(=O)N2CCCCCC2)c1`, the AC50 under setting [1] is 6.31 µM [falling, single point].

`O=C(OCC(=O)c1c[nH]c2ccccc12)c1cc(S(=O)(=O)N2CCOCC2)ccc1F`: under setting [1], the AC50 was 23.1 µM [falling, single point].

In the case of `O=C(O)c1ccc(/C=N/NC(=O)c2cc3ccccc3cc2O)cc1`, the AC50 under setting [1] was 3.66 µM [falling, full curve].

As to `COc1ccc2cc(CO)n(C)c2c1`, the AC50 under setting [1] is 13 µM [rising, partial curve, poor fit].

Consider `CN(CC(=O)Nc1ccc(Cl)c(Cl)c1)C(=O)CNC(=O)C1CCCCC1`, for which the concentration at half-maximal activity (AC50) runs as follows: under setting [1], 3.66 µM [falling, single point]; under setting [2], 6.51 µM [rising, partial curve, poor fit].

Regarding `CCOC(=O)c1nnn(-c2nonc2N)c1CN(CC)c1ccccc1`, the AC50 under setting [1] is 6.51 µM [falling, single point].

Take `COc1ccccc1CCC(=O)N1CCC(n2nccc2NC(=O)CC(C)C)CC1`: under setting [1], the half-maximal activity concentration (AC50) is 4.47 µM [rising, partial curve, poor fit].

Turning to `CCOc1ccc(-c2nnc3ccc(SCC(=O)Nc4cc(C)on4)nn23)cc1`, under setting [1], the half-maximal activity concentration (AC50) is 14.1 µM [rising, single point].

With `CCN(C(=O)COC(=O)c1cc([N+](=O)[O-])ccc1N1CCCCC1)C1CCS(=O)(=O)C1` (centres undefined), the AC50 under setting [1] is 15.8 µM [rising, single point].

Consider `Cc1oc2c(CN3CCCC3)c(O)ccc2c(=O)c1-c1ccccc1`, for which the concentration at half-maximal activity (AC50) under setting [1] is 23.1 µM [falling, single point].

`COc1ccc(C(=O)c2ccc(OC)c(N)c2)cc1N`: the half-maximal activity concentration (AC50) by setting is: under setting [1], 23.1 µM [rising, single point]; under setting [2], 13 µM [falling, partial curve, poor fit].

On to `COc1ccc(CCNC(=O)c2cc(-c3ccco3)on2)cc1OC`, for which the half-maximal activity concentration (AC50) under setting [1] is 7.08 µM [falling, partial curve, poor fit].

As for `O=c1[nH]c2ccccc2nc1/C=C/c1ccc(F)cc1`, under setting [1], the AC50 is 7.94 µM [falling, partial curve, poor fit].

Regarding `O=C(Nc1ccc(Cl)cc1Cl)c1cc(S(=O)(=O)N2CCCCCC2)ccc1F`, the AC50 under setting [1] was 35.5 µM [rising, single point].

On to `Cc1ccc(NC(=O)OCc2cccs2)cc1`, for which the AC50 under setting [1] is 14.1 µM [falling, single point].

For `O=[N+]([O-])c1ccccc1S(=O)(=O)NCc1ccc(F)cc1`, under setting [1], the AC50 was 6.31 µM [rising, single point].

Consider `N#Cc1ccccc1NC(=O)CSc1nccn1CCc1ccccc1`, for which, under setting [1], the AC50 is 1.3 µM [falling, full curve].

Take `CCCCNc1ccc(C(=O)OCCN(C)C)cc1`: the AC50 under setting [1] was 22.4 µM [rising, single point].

On to `Cc1cc(N2CCN(C(=O)c3ccco3)CC2)nc(-c2ccccc2)n1`, for which the AC50 under setting [1] was 35.5 µM [falling, single point].

For the compound `C#CCOc1nc2c(c(=O)n(C)c(=O)n2C)n1Cc1ccccc1`, the AC50 under setting [1] was 7.08 µM [falling, partial curve, poor fit].

On to `COc1cccc(OCc2ccc(Cl)cc2)c1C#N`, for which the AC50 under setting [1] was 0.398 µM [rising, partial curve, poor fit].

`CCc1cccc(CC)c1NC(=O)COC(=O)c1cccc(S(=O)(=O)N2CCc3ccccc3C2)c1`: the AC50 under setting [1] was 2.91 µM [rising, full curve, poor fit].

With `Cc1c(CCO)c(=O)n(-c2ccccc2)n1S(=O)(=O)c1c(Cl)cc(Cl)cc1Cl`, the AC50 under setting [1] was 22.4 µM [falling, single point].

Regarding `COc1cc(/C=N/N=C2/SCC(=O)N2c2ccc(O)cc2)ccc1O`, under setting [1], the AC50 was 35.5 µM [falling, single point].

Regarding `CC(=O)NC1Sc2ccccc2N=C1c1ccccc1` (centres undefined), the AC50 under setting [1] is 3.66 µM [rising, single point].

In the case of `CCOC(=O)C(C)N1C(=O)S/C(=C/c2cc(C)n(-c3ccccn3)c2C)C1=O` (centres undefined), the concentration at half-maximal activity (AC50) runs as follows: under setting [1], 7.31 µM [rising, partial curve, poor fit]; under setting [2], 14.6 µM [falling, partial curve].

In the case of `CC(C)Nc1nnc(SCC(=O)N2CCN(C(=O)c3ccco3)CC2)s1`, the AC50 under setting [1] is 36.6 µM [rising, single point].

`COC(=O)c1sccc1NC(=O)Cc1ccc(Br)cc1`: the AC50 by setting is: under setting [1], 9.2 µM [falling, partial curve]; under setting [2], 23.1 µM [rising, single point].

Turning to `O=C(OC1CCCCC1=O)c1cccc(S(=O)(=O)NCc2ccccc2)c1` (centres undefined), the concentration at half-maximal activity (AC50) under setting [1] was 17.8 µM [falling, partial curve, poor fit].

Turning to `CCN1CCN(Cc2ccc(NC(=O)c3ccc(C)c(NC(=O)c4cccc5[nH]ccc45)c3)cc2C(F)(F)F)CC1`, the concentration at half-maximal activity (AC50) under setting [1] is 0.355 µM [falling, full curve, poor fit].

As to `O=c1c(Br)c(Br)cnn1-c1ccccc1`, the half-maximal activity concentration (AC50) is, setting by setting: under setting [1], 5.01 µM [falling, full curve]; under setting [2], 3.55 µM [rising, full curve, poor fit].

Consider `Cn1cnc([N+](=O)[O-])c1Oc1cccc(O)c1`, for which the concentration at half-maximal activity (AC50) under setting [1] was 16.4 µM [falling, single point].

Consider `COc1ccc(NC(=O)c2ccc(-c3ccc(-c4noc(C)n4)cc3C)cc2)cc1N1CCN(C)CC1`, for which the AC50 under setting [2] is 25.9 µM [falling, partial curve, poor fit].

As for `CCOC(=O)Cc1csc(NC(=O)C2C3C=CC(C3)C2C(=O)O)n1` (centres undefined), under setting [1], the AC50 is 16.4 µM [rising, single point].

As to `Cc1[nH]c(=S)c(C#N)c(C)c1Cc1ccccc1`, the AC50 under setting [1] is 31.6 µM [rising, single point].

As for `Cn1c(SCC(=O)Nc2nccs2)nnc1C1CC1`, the AC50 under setting [1] was 6.31 µM [falling, full curve].

With `COc1cccc(C(=O)Nc2cc(S(=O)(=O)N3CCCCC3)ccc2OC)c1`, the AC50 under setting [1] is 10 µM [falling, partial curve, poor fit].

With `Cc1cccc(C)c1NC(=O)c1cnn(-c2ccccc2)c1C`, the AC50 under setting [1] is 7.08 µM [falling, partial curve].

As to `Oc1ccc(/C=N/Nc2ccc3ccccc3c2)c(O)c1`, the AC50 under setting [1] was 4.47 µM [falling, full curve, poor fit].

With `CCCc1[nH]c2ccc(C#N)cc2c1CCC`, under setting [1], the AC50 was 35.5 µM [falling, single point].

Consider `CN(C)c1ccc(/C=N/NC(=O)c2ccco2)cc1`, for which the half-maximal activity concentration (AC50) under setting [1] was 0.92 µM [falling, full curve].

Turning to `COc1cccc(/C=N/NC(=O)c2nnn(-c3nonc3N)c2CN(C)c2ccccc2)c1`, the AC50 under setting [1] is 11.2 µM [falling, single point].

On to `COc1ccc(CS(=O)(=O)CC(C)(O)c2ccc(Cl)cc2)cc1` (centres undefined), for which the AC50 under setting [1] is 12.6 µM [rising, single point].

Turning to `O=C(c1cc2ncc(CCCl)cn2n1)N1CCCCCC1`, the half-maximal activity concentration (AC50) under setting [1] was 6.51 µM [rising, partial curve, poor fit].

Take `COc1ccc(OC)c(NC(=O)CSc2nnc(NC(=O)c3ccco3)s2)c1`: under setting [1], the AC50 was 1.12 µM [falling, partial curve].

Regarding `CCOc1cccc2sc(Cl)nc12`, the AC50 under setting [1] is 0.355 µM [rising, full curve, poor fit].

For the compound `COc1ccc(S(=O)(=O)N2CCN(C(=O)c3ccc4ccccc4n3)CC2)cc1`, under setting [1], the AC50 was 2.59 µM [rising, partial curve, poor fit].

Take `C/C(Cl)=C/CSc1nn2c(=O)c3ccccc3nc2s1`: under setting [1], the concentration at half-maximal activity (AC50) was 16.4 µM [falling, single point].

Consider `C=CCN1C(=O)C(CC(=O)O)S/C1=N/N=C/c1ccc(N(CC)CC)cc1` (centres undefined), for which, under setting [2], the half-maximal activity concentration (AC50) is 16.4 µM [falling, partial curve, poor fit].

Take `O=[N+]([O-])c1ccc2nc(-c3ccncc3)[nH]c2c1`: the AC50 under setting [1] was 15.8 µM [falling, single point].

For `COc1ccc(-c2cc(C(=O)Nc3c(F)cc(F)cc3Br)no2)cc1`, the AC50 under setting [1] was 31.6 µM [falling, single point].
